Source: paper PMC9748900, “Unconventional isoquinoline-based SERMs elicit fulvestrant-like transcriptional programs in ER+ breast cancer cells” (NPJ Breast Cancer, 2022)

Test system: transcriptome of T47D breast cancer cells
Assay: RNA sequencing of T47D cells
Type: cell-based
Details: for transcripts overlapping with T6I-29-1A / unique transcripts: 1 μM + 1 nM E2 versus E2-only, 16 h
Procedure: We next used RNA transcriptomic analysis (RNAseq) to identify differentially affected genes. […] All sequencing runs were performed with three replicates per treatment.
T47D breast cancer cells were grown in 6-well dishes at 50,000 cells per well. […] After 24 h, they were placed in serum-starved media for 48 h. […] RNA was isolated using a Qiagen RNeasy Kit then sent to Novogene for sequencing and bioinformatics analysis.

SMILES: C[C@]12CC[C@@H]3c4ccc(O)cc4C[C@@H](CCCCCCCCC[S+]([O-])CCCC(F)(F)C(F)(F)F)[C@H]3[C@@H]1CC[C@@H]2O (some centres unmarked) [ICI, fulvestrant]
- transcripts overlapping with T6I-29-1A: 116
- unique transcripts: 245

SMILES: Oc1ccc2c(c1)CC[C@H](c1ccccc1)[C@@H]2c1ccc(OCCN2CCCC2)cc1 [Laso, lasofoxifene]
- transcripts overlapping with T6I-29-1A: 77
- unique transcripts: 158

SMILES: C[C@]12CC[C@@H]3c4ccc(O)cc4CC[C@H]3[C@@H]1CC[C@@H]2O [E2, 17β-estradiol]
- downregulated genes (1 nM E2 versus veh): 4394
- upregulated genes (1 nM E2 versus veh): 4709

SMILES: CCNCCc1ccc(CN(CC)c2cc(OC)ccc2[C@@H]2CCc3cc(O)ccc3C2)cc1 [RAD1901, elacestrant]
- transcripts overlapping with T6I-29-1A: 73
- unique transcripts: 116
